Test results from the supplement of paper PMC3334620.
The full ranking holds about 33,000 sequences; the median of “E-score (-0.5 to 0.5)” is about -8e-05, and the highest 2% start at about 0.23. Some of the results follow.

target: T1, Nrg2 (UniProt P38082); assay: PBM E-score (8-mer binding enrichment) (E-score (-0.5 to 0.5)); higher = stronger / more preferred TF binding; conditions: protein concentration: 100 nM; construct: GST-full length
T1 sequence: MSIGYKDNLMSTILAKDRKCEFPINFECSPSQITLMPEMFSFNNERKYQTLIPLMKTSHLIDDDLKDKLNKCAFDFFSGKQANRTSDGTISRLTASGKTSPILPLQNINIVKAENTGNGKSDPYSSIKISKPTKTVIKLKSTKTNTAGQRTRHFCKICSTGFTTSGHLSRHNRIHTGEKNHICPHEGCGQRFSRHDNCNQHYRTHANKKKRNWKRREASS
Procedure, shortened: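 Full-length yeast transcription factors or their DNA-binding domains, GST-tagged and expressed with PURExpress, were applied at about 100-200 nM to universal all-10-mer Agilent arrays. These arrays had been made double-stranded by primer extension on fresh or once-stripped slides. Detection used fluorescent anti-GST, normalisation used masliner, and E-scores for ungapped eight-base words pooled with reverse complements came from the Universal PBM Analysis Suite.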

Going from CAATTTGC to GCCCTTCC, the “PBM E-score” value falls from -0.0607 to -0.188.

First: AGTGAGTC
Second: ACCTCAGT
The “PBM E-score” value of the first is lower: -0.00332 for the first, 0.0369 for the second.

Compared with AGCAGTGA, AGGGTCGA is higher in “PBM E-score” value: 0.234 for the first, 0.262 for the second.

Compared with CCTCAAAG, ATGGTGGA is higher in “PBM E-score” value: -0.153 for the first, -0.0629 for the second.

First: CCGTTTAG
Second: AACTGTCT
The “PBM E-score” value of the first is lower: -0.126 for the first, 0.0381 for the second.

Compared with ATATGCAG, GCTGGTCA is higher in “PBM E-score” value: -0.236 for the first, -0.121 for the second.

First: GACGACCA
Second: AATCAGCA
The “PBM E-score” value of the first is lower: 0.00397 for the first, 0.0692 for the second.

Compared with ACAACATA, AGGAAACA is lower in “PBM E-score” value: 0.268 for the first, 0.0307 for the second.

First: ACCAACGC
Second: AGGATAAA
The “PBM E-score” value of the first is lower: -0.09 for the first, 0.106 for the second.

Compared with AATTCGCG, ATTGTTAG is lower in “PBM E-score” value: 0.202 for the first, 0.174 for the second.

First: GTATTCTA
Second: CTGATGGC
The “PBM E-score” value of the first is higher: 0.0921 for the first, -0.0852 for the second.

First: TAGCTCGA
Second: AATTTGTA
The “PBM E-score” value of the first is lower: 0.17 for the first, 0.173 for the second.

Going from CCTTCTGC to ACCTGCGA, the “PBM E-score” value rises from -0.0658 to -0.0464.

First: AACTAACT
Second: ATAGTTCC
The “PBM E-score” value of the first is lower: 0.0521 for the first, 0.118 for the second.

Compared with CCGGCCTC, CATCTCGA is higher in “PBM E-score” value: -0.215 for the first, 0.0545 for the second.

Compared with GCCGGTAA, TCAAAAGA is lower in “PBM E-score” value: 0.0975 for the first, 0.0913 for the second.

First: CAAATTCG
Second: GCAGAACC
The “PBM E-score” value of the first is higher: 0.186 for the first, -0.0284 for the second.

Compared with CCATCACG, AGACTTGG is lower in “PBM E-score” value: -0.0736 for the first, -0.191 for the second.

First: ACACGACC
Second: GTAGTGCA
The “PBM E-score” value of the first is lower: 0.00695 for the first, 0.138 for the second.

Compared with CTGTCAAC, GAACTGTA is lower in “PBM E-score” value: 0.122 for the first, 0.0377 for the second.

First: CTGCTCAC
Second: CAAATAGG
The “PBM E-score” value of the first is higher: -0.063 for the first, -0.0634 for the second.

Compared with GGCATCAA, CAGTTTAG is higher in “PBM E-score” value: -0.153 for the first, -0.0391 for the second.

Compared with CGGGATGA, CAAACCTC is higher in “PBM E-score” value: -0.0542 for the first, -0.04 for the second.

First: CGTCCTGA
Second: CCCTCGTC
The “PBM E-score” value of the first is higher: -0.00684 for the first, -0.033 for the second.

Compared with CTCAAAAC, GAATCTTA is higher in “PBM E-score” value: 0.0822 for the first, 0.171 for the second.

First: ATAAGTGC
Second: CAAAACCA
The “PBM E-score” value of the first is lower: -0.0559 for the first, 0.249 for the second.

Compared with GTCTCAAA, AAAACCTG is higher in “PBM E-score” value: -0.12 for the first, -0.073 for the second.

First: GATTCACA
Second: GTAGGGAA
The “PBM E-score” value of the first is lower: -0.00093 for the first, 0.0208 for the second.

Going from GTGGCTGA to ACAGCTTC, the “PBM E-score” value falls from -0.033 to -0.102.

First: GTCTTACA
Second: CAAACACC
The “PBM E-score” value of the first is lower: -0.142 for the first, -0.0668 for the second.

First: ATTCCGGC
Second: CAATCTGC
The “PBM E-score” value of the first is lower: -0.0149 for the first, 0.00635 for the second.

Going from GATGAGTA to CAGCGTCC, the “PBM E-score” value falls from 0.136 to -0.133.

Compared with CTCTAAGA, GACTCAAA is lower in “PBM E-score” value: -0.0998 for the first, -0.107 for the second.

Going from CCTGCCCC to CCACTTAG, the “PBM E-score” value rises from -0.17 to -0.0844.

Compared with AACGCTCA, CTATTATC is higher in “PBM E-score” value: -0.127 for the first, 0.102 for the second.

Going from AATGATCA to GCATTCGC, the “PBM E-score” value falls from 0.13 to -0.2.

First: TGAGTCAA
Second: AGCCAGCA
The “PBM E-score” value of the first is higher: 0.0756 for the first, -0.0709 for the second.

First: CTCGTGTC
Second: CTACTTTA
The “PBM E-score” value of the first is lower: -0.0953 for the first, 0.0465 for the second.

First: AACGGTAC
Second: AATTATGC
The “PBM E-score” value of the first is higher: 0.15 for the first, 0.074 for the second.

Going from GCCTCAGC to CCGCCCGG, the “PBM E-score” value rises from -0.146 to -0.003.

First: GAGCAGTA
Second: CATCTATA
The “PBM E-score” value of the first is higher: 0.136 for the first, 0.0737 for the second.

Compared with ATTAAGCC, CTCTGAAA is lower in “PBM E-score” value: -0.0328 for the first, -0.0416 for the second.

Going from AGCGACCA to ACTAGGAA, the “PBM E-score” value falls from -0.0183 to -0.094.

Compared with ATCTCCCG, CGTTAGTC is lower in “PBM E-score” value: -0.0239 for the first, -0.0998 for the second.

Going from AATTAGGT to CGGACGTA, the “PBM E-score” value falls from 0.032 to -0.0723.

Going from GCAAATGC to ATCGAATC, the “PBM E-score” value rises from 0.0341 to 0.09.

Compared with CCGCCGAC, ATAGCTAA is higher in “PBM E-score” value: 0.0053 for the first, 0.0739 for the second.

Compared with ATGGCTAA, AAACGCGG is higher in “PBM E-score” value: -0.0494 for the first, 0.178 for the second.

Going from GTTCACGA to GGATGTAC, the “PBM E-score” value falls from 0.0077 to -0.0199.

Compared with AAGATTCT, CAGTTCTA is lower in “PBM E-score” value: -0.106 for the first, -0.183 for the second.

First: CTCTACAG
Second: CATCCTCA
The “PBM E-score” value of the first is higher: -0.101 for the first, -0.106 for the second.

Compared with AATTCCAG, AATTTAAG is lower in “PBM E-score” value: 0.0701 for the first, -0.0478 for the second.

First: CAGTGATA
Second: CAGTACAA
The “PBM E-score” value of the first is higher: 0.0771 for the first, -0.0239 for the second.

First: AAAAGCTT
Second: ACATGTCC
The “PBM E-score” value of the first is lower: -0.147 for the first, 0.0495 for the second.

Compared with AATCTCAC, GTACGGGA is lower in “PBM E-score” value: -0.0783 for the first, -0.143 for the second.

First: ATTTCAAG
Second: GGCAGTAC
The “PBM E-score” value of the first is lower: -0.039 for the first, -0.0158 for the second.

Compared with CCATTGGG, GCGCATCC is higher in “PBM E-score” value: -0.146 for the first, 0.00271 for the second.

First: GTATACAA
Second: GCCGGTAC
The “PBM E-score” value of the first is higher: 0.144 for the first, -0.241 for the second.

Going from AAGAGAGA to ATCTATGG, the “PBM E-score” value rises from -0.224 to -0.0899.

Compared with AATGGGTG, GGGGAGTA is lower in “PBM E-score” value: 0.0747 for the first, -0.0352 for the second.

Compared with ATACTTGG, ACGAGACA is lower in “PBM E-score” value: 0.0452 for the first, -0.0105 for the second.

First: AAAGGCCG
Second: GTGTCAAA
The “PBM E-score” value of the first is lower: -0.174 for the first, 0.0139 for the second.

Going from ATTCACTC to AAAACCAA, the “PBM E-score” value falls from -0.00107 to -0.0245.

Compared with CCTACGTC, ATGAATTA is higher in “PBM E-score” value: -0.175 for the first, 0.0776 for the second.

First: CATTAACC
Second: ATCAGTCG
The “PBM E-score” value of the first is higher: 0.0762 for the first, 0.0523 for the second.

First: ACTGTTCT
Second: CATTCCCG
The “PBM E-score” value of the first is higher: 0.114 for the first, 0.0875 for the second.

Going from GCGAAAGA to AGCGAAAT, the “PBM E-score” value rises from 0.00991 to 0.0986.

Going from GAATACAA to CGTTGCGC, the “PBM E-score” value falls from 0.107 to -0.0131.

First: GACAAAAA
Second: CGAAGGTC
The “PBM E-score” value of the first is higher: 0.0692 for the first, -0.132 for the second.

Going from ATCGGGGG to ATTGGCTC, the “PBM E-score” value rises from -0.328 to -0.0548.

First: ACGCCCTC
Second: CTAGTTCC
The “PBM E-score” value of the first is lower: -0.0422 for the first, 0.0978 for the second.

Compared with CTCCAAAC, CTCACCTA is lower in “PBM E-score” value: 0.00209 for the first, -0.114 for the second.

First: CACGTTTA
Second: GTGAACCA
The “PBM E-score” value of the first is lower: -0.137 for the first, 0.0356 for the second.

First: TACTCCTA
Second: GGTGTGCA
The “PBM E-score” value of the first is higher: -0.133 for the first, -0.253 for the second.

Going from CCAGGTGC to AGGTCCCA, the “PBM E-score” value falls from 0.0275 to -0.0402.

First: AGTAGGTC
Second: AGTAGGAA
The “PBM E-score” value of the first is lower: -0.219 for the first, -0.0957 for the second.

First: CGGGGGAA
Second: CAGGTCCG
The “PBM E-score” value of the first is lower: -0.158 for the first, -0.00878 for the second.

First: ACCTAGAC
Second: CCGGTCCA
The “PBM E-score” value of the first is higher: -0.127 for the first, -0.254 for the second.

Going from AGCTTAGG to AGATCACG, the “PBM E-score” value rises from -0.0232 to -0.0131.

First: GACAGTTA
Second: AGAACTGC
The “PBM E-score” value of the first is higher: 0.035 for the first, -0.133 for the second.

Going from TCCGCGAA to ATCACGAA, the “PBM E-score” value rises from 0.0271 to 0.061.

First: TCACTAAA
Second: AGCACAGG
The “PBM E-score” value of the first is higher: 0.099 for the first, 0.0239 for the second.

Going from CGACTAAA to AAATAAAG, the “PBM E-score” value rises from -0.00871 to 0.0565.

Compared with AAGACAGG, ACCTCGAT is higher in “PBM E-score” value: 0.0155 for the first, 0.147 for the second.

First: CTTTATGA
Second: GAGAGTCC
The “PBM E-score” value of the first is higher: 0.00015 for the first, -0.152 for the second.

Compared with AAAAGCGG, CCGCGAAG is higher in “PBM E-score” value: -0.12 for the first, 0.106 for the second.
